Among the data in patent US6365364 are binding values, retold here.

Protein sequences, listed by entry. Tags and fused reporters are not part of them. Lines headed by an entry give the natural chain unless they say otherwise; changes in a name come on top. Chains listed by the source or under a name are the forms on record and can include a tag or linker.
UniProt P00747: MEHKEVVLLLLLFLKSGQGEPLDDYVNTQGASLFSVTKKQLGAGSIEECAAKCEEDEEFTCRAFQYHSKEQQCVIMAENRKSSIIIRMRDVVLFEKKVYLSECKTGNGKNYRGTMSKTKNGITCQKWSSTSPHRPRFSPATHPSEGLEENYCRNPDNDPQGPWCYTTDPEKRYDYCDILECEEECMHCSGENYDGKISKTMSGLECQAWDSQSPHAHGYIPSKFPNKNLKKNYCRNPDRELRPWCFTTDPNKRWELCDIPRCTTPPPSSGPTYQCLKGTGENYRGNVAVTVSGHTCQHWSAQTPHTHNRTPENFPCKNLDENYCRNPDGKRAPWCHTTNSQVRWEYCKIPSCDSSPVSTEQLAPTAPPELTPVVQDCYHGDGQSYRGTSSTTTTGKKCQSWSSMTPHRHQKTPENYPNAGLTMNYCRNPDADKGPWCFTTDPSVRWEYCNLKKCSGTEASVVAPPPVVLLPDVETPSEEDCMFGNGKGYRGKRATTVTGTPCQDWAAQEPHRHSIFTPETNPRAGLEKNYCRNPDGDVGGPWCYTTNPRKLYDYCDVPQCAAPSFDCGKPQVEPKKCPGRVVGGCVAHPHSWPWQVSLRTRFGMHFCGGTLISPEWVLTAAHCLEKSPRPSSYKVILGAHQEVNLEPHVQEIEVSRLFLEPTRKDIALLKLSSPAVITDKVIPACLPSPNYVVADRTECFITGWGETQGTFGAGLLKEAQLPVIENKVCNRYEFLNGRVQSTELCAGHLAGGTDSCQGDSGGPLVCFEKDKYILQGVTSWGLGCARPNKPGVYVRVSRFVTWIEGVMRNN
Lys78-plasminogen (S741C) (P00747, form named): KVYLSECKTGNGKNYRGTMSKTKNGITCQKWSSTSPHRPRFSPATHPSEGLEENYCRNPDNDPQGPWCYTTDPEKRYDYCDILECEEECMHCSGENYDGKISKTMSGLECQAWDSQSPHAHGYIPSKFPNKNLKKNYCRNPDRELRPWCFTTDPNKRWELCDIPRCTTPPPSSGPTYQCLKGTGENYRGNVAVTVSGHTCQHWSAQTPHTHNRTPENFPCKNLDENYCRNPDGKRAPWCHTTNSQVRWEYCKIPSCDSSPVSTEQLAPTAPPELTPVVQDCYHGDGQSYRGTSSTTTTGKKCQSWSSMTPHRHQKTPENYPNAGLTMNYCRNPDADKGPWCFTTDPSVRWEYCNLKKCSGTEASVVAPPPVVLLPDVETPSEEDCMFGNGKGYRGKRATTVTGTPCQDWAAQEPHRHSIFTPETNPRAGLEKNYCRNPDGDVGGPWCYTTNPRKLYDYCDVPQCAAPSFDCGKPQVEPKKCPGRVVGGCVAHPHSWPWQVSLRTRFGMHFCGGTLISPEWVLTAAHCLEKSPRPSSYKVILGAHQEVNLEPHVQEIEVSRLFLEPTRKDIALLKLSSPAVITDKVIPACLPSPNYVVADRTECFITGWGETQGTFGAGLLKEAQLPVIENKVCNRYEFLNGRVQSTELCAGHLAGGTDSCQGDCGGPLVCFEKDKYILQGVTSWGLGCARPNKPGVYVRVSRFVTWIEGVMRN

Assay [1] concerns the target T1, bovine bone osteonectin (bovine) (UniProt P13213).
T1 sequence (looked up): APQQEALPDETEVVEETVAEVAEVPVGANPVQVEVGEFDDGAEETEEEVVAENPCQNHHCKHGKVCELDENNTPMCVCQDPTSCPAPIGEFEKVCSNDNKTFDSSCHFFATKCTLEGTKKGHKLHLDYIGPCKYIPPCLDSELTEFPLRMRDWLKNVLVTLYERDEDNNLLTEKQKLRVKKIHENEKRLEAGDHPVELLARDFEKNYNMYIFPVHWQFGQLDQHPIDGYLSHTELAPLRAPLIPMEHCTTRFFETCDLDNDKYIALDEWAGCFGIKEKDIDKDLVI
In words: TIRFS.

Assay [2] deals with T1, bovine bone osteonectin (bovine). In words: TIRFS; 100 nM plasminogen (S741C), 2 µM bone osteonectin, collagen type V well.
For assay [3] the target is unchanged. Put plainly: TIRFS competition.
Assay [4] has the same target. In words: TIRFS competition; 2 µM peptide with 1 µM osteonectin against 100 nM FITC-glu-plasminogen.
Assay [5] has the same target. In words: TIRFS; plasmin added to FITC-glu-plasminogen and osteonectin on collagen type V.

These are yes or no findings as the source states them, for the method shown. Some binding calls cover weakened binding; strength is not graded here.

Turning to “Lys78-plasminogen (S741C) (from UniProt P00747 97-809)”, the binding entry in assay [1] and in assay [2] was “binds” throughout.
“kringles 1-3 peptide (residues 79-353) from elastase digestion of human glu-plasminogen (from UniProt P00747 98-372)”: the binding entry in assay [3] and in assay [4] was “binds” each time.
In the case of “kringle 4 peptide (residues 354-439) from elastase digestion of human glu-plasminogen (from UniProt P00747 373-458)”, the binding entry in assay [3] and in assay [4] was “binds” throughout.
In the case of “Lys78-plasminogen from plasma-derived glu-plasminogen, fluorescein labeled (from UniProt P00747 97-809)”, the binding result in assay [5] and in assay [1] was “binds” throughout.
